In publication PMC10629813:
Results are given in words; binding and its absence hold for the method and conditions named. Binding seen in cells or lysates may run through a third protein. Here binding means that the protein was enriched with, or labelled near, the bait; the list need not be complete. For some assays here: Tags and fused reporters may be left off the sequences shown.

Protein sequences, listed by entry. Tags and fused reporters are not part of them. Residues count along the entry.
UniProt P83916: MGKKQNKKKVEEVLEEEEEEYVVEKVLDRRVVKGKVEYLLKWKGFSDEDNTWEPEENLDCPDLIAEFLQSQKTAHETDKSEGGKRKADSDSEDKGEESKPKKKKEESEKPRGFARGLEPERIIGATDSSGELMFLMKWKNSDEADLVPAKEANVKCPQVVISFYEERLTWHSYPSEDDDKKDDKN
UniProt Q14839: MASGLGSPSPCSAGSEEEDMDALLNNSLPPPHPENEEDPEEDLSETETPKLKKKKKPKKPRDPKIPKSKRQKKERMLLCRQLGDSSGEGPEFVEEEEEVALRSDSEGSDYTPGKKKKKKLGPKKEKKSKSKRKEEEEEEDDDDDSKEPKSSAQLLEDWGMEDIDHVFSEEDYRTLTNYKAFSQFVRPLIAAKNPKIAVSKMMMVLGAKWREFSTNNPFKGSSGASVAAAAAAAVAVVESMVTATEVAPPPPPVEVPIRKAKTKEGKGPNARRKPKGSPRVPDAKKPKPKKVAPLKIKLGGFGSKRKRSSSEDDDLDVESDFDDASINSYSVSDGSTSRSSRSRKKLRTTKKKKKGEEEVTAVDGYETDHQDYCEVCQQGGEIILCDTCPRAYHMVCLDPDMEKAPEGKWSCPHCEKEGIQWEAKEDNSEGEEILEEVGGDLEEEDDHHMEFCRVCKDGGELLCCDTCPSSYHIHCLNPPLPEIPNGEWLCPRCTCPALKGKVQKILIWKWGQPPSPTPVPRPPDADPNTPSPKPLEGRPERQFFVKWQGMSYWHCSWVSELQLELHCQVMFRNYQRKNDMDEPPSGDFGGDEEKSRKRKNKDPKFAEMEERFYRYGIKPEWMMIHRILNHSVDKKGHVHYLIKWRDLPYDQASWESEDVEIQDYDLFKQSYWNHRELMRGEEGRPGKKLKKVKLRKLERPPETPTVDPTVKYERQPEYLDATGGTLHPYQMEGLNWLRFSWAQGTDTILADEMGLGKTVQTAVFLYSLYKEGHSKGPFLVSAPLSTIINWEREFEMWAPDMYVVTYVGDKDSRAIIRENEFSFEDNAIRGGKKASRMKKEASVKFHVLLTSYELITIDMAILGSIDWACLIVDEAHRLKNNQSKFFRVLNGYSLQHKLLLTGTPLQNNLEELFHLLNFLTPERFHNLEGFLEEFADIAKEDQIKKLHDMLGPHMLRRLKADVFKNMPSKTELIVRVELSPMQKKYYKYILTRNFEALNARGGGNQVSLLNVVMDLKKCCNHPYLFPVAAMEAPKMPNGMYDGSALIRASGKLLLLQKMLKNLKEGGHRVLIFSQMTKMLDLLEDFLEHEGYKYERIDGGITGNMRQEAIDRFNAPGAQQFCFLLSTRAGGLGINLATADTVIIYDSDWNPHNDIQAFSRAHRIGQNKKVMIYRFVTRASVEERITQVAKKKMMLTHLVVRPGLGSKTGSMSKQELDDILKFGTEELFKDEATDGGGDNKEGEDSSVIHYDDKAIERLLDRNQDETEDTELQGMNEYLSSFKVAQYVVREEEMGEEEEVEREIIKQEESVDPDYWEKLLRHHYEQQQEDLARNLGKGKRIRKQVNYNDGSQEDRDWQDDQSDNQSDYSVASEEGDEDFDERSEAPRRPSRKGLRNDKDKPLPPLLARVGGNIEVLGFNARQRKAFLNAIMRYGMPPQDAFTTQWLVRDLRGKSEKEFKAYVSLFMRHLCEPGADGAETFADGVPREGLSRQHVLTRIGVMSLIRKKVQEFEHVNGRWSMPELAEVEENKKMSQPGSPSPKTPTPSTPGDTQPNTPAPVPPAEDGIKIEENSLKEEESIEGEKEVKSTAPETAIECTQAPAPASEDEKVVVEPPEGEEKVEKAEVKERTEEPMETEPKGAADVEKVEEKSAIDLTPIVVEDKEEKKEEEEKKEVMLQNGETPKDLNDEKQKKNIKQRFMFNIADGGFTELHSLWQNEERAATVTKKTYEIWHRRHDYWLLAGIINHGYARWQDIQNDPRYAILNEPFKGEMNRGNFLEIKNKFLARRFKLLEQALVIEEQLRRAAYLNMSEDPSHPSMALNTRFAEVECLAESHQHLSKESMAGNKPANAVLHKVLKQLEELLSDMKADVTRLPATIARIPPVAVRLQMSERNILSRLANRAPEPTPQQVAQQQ
UniProt Q9UKL0: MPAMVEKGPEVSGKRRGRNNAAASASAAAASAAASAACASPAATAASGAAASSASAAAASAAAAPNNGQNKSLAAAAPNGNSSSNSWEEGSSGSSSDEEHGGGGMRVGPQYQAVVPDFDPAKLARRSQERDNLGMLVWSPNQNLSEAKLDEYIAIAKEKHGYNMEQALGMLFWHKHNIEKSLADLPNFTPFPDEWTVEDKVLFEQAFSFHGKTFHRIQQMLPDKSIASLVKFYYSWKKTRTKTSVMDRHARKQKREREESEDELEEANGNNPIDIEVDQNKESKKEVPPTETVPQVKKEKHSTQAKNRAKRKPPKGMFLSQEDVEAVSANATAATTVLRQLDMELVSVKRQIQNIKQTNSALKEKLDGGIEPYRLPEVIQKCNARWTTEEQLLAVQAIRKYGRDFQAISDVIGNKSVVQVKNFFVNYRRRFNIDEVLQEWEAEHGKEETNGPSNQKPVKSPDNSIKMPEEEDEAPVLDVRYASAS
UniProt P55854, residues 1-92: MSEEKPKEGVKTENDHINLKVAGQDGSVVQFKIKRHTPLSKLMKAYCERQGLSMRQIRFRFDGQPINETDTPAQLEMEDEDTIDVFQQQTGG
UniProt Q13263: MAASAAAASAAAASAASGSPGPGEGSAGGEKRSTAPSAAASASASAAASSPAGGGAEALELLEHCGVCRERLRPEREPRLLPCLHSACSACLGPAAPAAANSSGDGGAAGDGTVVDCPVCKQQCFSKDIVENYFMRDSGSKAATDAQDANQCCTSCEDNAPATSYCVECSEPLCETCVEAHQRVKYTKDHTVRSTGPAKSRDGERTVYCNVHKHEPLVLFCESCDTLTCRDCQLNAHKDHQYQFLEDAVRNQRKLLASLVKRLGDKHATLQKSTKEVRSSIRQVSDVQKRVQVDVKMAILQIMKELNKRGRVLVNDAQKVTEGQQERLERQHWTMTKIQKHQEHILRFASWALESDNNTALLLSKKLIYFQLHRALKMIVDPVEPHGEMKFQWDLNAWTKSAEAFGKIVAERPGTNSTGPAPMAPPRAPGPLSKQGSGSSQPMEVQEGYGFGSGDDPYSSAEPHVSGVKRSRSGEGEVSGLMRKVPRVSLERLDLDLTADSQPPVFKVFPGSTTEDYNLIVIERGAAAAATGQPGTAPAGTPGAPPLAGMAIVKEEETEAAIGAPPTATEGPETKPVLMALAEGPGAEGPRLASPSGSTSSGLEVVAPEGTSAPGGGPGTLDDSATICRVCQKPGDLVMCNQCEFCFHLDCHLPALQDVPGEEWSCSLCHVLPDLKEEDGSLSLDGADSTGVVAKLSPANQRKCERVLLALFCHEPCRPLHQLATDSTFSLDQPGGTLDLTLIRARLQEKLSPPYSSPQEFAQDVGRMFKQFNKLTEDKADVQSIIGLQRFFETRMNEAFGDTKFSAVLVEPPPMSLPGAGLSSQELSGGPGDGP

T1: Flag-tagged ZMYM2 (stable U2OS-Flp-in cell line flag-ZMYM2(WT)) (UniProt Q9UBW7)
T1 sequence: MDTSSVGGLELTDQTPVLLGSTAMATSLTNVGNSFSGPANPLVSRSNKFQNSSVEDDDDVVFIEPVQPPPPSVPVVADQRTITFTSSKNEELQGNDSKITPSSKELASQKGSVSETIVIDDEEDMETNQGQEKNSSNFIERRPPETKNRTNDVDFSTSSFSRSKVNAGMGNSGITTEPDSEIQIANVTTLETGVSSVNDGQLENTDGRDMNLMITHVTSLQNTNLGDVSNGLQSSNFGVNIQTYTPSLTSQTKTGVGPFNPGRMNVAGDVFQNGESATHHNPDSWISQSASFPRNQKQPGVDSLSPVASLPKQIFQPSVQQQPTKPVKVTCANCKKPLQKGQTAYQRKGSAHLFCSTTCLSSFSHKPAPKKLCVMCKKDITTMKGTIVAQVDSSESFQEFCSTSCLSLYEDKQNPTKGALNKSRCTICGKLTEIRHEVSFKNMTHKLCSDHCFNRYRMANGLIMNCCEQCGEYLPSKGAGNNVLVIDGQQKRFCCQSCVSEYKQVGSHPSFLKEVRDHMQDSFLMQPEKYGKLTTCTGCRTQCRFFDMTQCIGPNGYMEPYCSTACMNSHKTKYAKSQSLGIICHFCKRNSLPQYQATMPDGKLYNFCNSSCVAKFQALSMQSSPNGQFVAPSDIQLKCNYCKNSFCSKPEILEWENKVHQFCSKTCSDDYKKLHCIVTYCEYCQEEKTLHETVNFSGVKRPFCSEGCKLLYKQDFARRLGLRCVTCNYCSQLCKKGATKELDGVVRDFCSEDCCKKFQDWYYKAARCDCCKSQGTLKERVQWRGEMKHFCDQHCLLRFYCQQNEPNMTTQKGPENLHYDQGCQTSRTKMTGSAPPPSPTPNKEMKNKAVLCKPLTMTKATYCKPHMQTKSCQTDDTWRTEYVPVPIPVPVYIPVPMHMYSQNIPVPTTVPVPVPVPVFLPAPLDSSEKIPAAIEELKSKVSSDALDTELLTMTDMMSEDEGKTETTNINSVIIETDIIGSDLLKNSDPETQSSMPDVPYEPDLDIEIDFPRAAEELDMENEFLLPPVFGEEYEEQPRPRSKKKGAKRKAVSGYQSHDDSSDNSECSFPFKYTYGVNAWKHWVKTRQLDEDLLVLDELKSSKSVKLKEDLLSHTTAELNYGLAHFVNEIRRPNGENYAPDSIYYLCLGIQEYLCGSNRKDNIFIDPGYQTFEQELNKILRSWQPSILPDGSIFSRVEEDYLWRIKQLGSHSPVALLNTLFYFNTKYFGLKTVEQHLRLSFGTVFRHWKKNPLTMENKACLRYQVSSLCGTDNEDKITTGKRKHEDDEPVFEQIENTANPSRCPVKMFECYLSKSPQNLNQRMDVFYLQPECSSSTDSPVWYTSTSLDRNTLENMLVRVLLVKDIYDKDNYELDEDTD

T2: ZMYM2 (endogenous, U2OS cells) (human (endogenous in U2OS)) (UniProt Q9UBW7)
T2 sequence: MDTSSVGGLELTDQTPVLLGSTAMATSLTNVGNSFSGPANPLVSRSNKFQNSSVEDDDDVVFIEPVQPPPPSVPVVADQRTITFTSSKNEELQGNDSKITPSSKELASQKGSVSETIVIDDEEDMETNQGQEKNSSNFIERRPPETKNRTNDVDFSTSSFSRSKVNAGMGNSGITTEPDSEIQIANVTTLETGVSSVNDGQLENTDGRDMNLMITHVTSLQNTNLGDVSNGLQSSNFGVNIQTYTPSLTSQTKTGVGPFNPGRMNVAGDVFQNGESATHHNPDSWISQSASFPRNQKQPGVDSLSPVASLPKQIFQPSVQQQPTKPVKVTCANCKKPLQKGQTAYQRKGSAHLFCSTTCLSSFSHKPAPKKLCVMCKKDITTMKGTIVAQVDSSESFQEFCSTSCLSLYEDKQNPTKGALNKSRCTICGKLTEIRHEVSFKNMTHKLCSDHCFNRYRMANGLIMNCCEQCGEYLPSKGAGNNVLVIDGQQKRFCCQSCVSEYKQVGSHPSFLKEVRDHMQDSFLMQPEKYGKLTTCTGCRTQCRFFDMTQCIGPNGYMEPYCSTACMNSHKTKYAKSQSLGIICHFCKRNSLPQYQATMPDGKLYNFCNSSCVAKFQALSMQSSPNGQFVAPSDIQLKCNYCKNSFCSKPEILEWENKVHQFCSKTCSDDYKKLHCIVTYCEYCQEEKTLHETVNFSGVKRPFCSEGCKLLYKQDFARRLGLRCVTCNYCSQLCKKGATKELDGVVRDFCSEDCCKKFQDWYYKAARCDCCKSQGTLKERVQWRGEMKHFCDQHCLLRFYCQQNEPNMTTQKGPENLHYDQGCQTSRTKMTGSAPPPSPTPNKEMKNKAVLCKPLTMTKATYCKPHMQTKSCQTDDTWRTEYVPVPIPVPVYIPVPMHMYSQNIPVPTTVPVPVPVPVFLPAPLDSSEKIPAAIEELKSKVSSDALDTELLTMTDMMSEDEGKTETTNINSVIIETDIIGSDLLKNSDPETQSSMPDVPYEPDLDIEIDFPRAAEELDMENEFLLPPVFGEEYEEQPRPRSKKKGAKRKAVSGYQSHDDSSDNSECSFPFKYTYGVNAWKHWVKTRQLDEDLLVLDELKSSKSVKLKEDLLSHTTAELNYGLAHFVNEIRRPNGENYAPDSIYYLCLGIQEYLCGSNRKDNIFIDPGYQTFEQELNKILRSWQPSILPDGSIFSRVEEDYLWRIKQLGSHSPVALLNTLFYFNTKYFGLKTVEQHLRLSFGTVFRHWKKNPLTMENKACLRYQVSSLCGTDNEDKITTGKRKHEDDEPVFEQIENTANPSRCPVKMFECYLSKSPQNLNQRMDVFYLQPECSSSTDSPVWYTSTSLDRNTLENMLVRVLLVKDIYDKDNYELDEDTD

B1: ADNP2 (protein, UniProt Q6IQ32 1-1131)
chain: MFQIPVENLDNIRKVRKKVKGILVDIGLDSCKELLKDLKGFDPGEKYFHNTSWGDVSLWEPSGKKVRYRTKPYCCGLCKYSTKVLTSFKNHLHRYHEDEIDQELVIPCPNCVFASQPKVVGRHFRMFHAPVRKVQNYTVNILGETKSSRSDVISFTCLKCNFSNTLYYSMKKHVLVAHFHYLINSYFGLRTEEMGEQPKTNDTVSIEKIPPPDKYYCKKCNANASSQDALMYHILTSDIHRDLENKLRSVISEHIKRTGLLKQTHIAPKPAAHLAAPANGSAPSAPAQPPCFHLALPQNSPSPAAGQPVTVAQGAPGSLTHSPPAAGQSHMTLVSSPLPVGQNSLTLQPPAPQPVFLSHGVPLHQSVNPPVLPLSQPVGPVNKSVGTSVLPINQTVRPGVLPLTQPVGPINRPVGPGVLPVSPSVTPGVLQAVSPGVLSVSRAVPSGVLPAGQMTPAGQMTPAGVIPGQTATSGVLPTGQMVQSGVLPVGQTAPSRVLPPGQTAPLRVISAGQVVPSGLLSPNQTVSSSAVVPVNQGVNSGVLQLSQPVVSGVLPVGQPVRPGVLQLNQTVGTNILPVNQPVRPGASQNTTFLTSGSILRQLIPTGKQVNGIPTYTLAPVSVTLPVPPGGLATVAPPQMPIQLLPSGAAAPMAGSMPGMPSPPVLVNAAQSVFVQASSSAADTNQVLKQAKQWKTCPVCNELFPSNVYQVHMEVAHKHSESKSGEKLEPEKLAACAPFLKWMREKTVRCLSCKCLVSEEELIHHLLMHGLGCLFCPCTFHDIKGLSEHSRNRHLGKKKLPMDYSNRGFQLDVDANGNLLFPHLDFITILPKEKLGEREVYLAILAGIHSKSLVPVYVKVRPQAEGTPGSTGKRVSTCPFCFGPFVTTEAYELHLKERHHIMPTVHTVLKSPAFKCIHCCGVYTGNMTLAAIAVHLVRCRSAPKDSSSDLQAQPGFIHNSELLLVSGEVMHDSSFSVKRKLPDGHLGAEDQRHGEEQPPILNADAAPGPEKVTSVVPFKRQRNESRTEGPIVKDEALQILALDPKKYEGRSYEEKKQFLKDYFHKKPYPSKKEIELLSSLFWVWKIDVASFFGKRRYICMKAIKNHKPSVLLGFDMSELKNVKHRLNFEYEP
B2: ADNP (endogenous, U2OS cells) (protein, UniProt Q9H2P0 1-1102)
chain: MFQLPVNNLGSLRKARKTVKKILSDIGLEYCKEHIEDFKQFEPNDFYLKNTTWEDVGLWDPSLTKNQDYRTKPFCCSACPFSSKFFSAYKSHFRNVHSEDFENRILLNCPYCTFNADKKTLETHIKIFHAPNASAPSSSLSTFKDKNKNDGLKPKQADSVEQAVYYCKKCTYRDPLYEIVRKHIYREHFQHVAAPYIAKAGEKSLNGAVPLGSNAREESSIHCKRCLFMPKSYEALVQHVIEDHERIGYQVTAMIGHTNVVVPRSKPLMLIAPKPQDKKSMGLPPRIGSLASGNVRSLPSQQMVNRLSIPKPNLNSTGVNMMSSVHLQQNNYGVKSVGQGYSVGQSMRLGLGGNAPVSIPQQSQSVKQLLPSGNGRSYGLGSEQRSQAPARYSLQSANASSLSSGQLKSPSLSQSQASRVLGQSSSKPAAAATGPPPGNTSSTQKWKICTICNELFPENVYSVHFEKEHKAEKVPAVANYIMKIHNFTSKCLYCNRYLPTDTLLNHMLIHGLSCPYCRSTFNDVEKMAAHMRMVHIDEEMGPKTDSTLSFDLTLQQGSHTNIHLLVTTYNLRDAPAESVAYHAQNNPPVPPKPQPKVQEKADIPVKSSPQAAVPYKKDVGKTLCPLCFSILKGPISDALAHHLRERHQVIQTVHPVEKKLTYKCIHCLGVYTSNMTASTITLHLVHCRGVGKTQNGQDKTNAPSRLNQSPSLAPVKRTYEQMEFPLLKKRKLDDDSDSPSFFEEKPEEPVVLALDPKGHEDDSYEARKSFLTKYFNKQPYPTRREIEKLAASLWLWKSDIASHFSNKRKKCVRDCEKYKPGVLLGFNMKELNKVKHEMDFDAEWLFENHDEKDSRVNASKTADKKLNLGKEDDSSSDSFENLEEESNESGSPFDPVFEVEPKISNDNPEEHVLKVIPEDASESEEKLDQKEDGSKYETIHLTEEPTKLMHNASDSEVDQDDVVEWKDGASPSESGPGSQQVSDFEDNTCEMKPGTWSDESSQSEDARSSKPAAKKKATMQGDREQLKWKNSSYGKVEGFWSKDQSQWKNASENDERLSNPQIEWQNSTIDSEDGEQFDNMTDGVAEPMHGSLAGVKLSSQQA

Legend:
[1] = target: T1, Flag-tagged ZMYM2 (stable U2OS-Flp-in cell line flag-ZMYM2(WT)); assay: affinity purification with mass spectrometry; RIME: U2OS-derived cells fixed with DMA then 1% formaldehyde, sonicated; IP with anti-flag antibody (Flag-ZMYM2 line) or antibody against endogenous ZMYM2 on beads overnight at 4 °C; buffers with 20 mM NEM and 30 mM IAA; 10 RIPA washes; on-bead trypsin; Orbitrap; three experiments
[2] = target: T2, ZMYM2 (endogenous, U2OS cells) (human (endogenous in U2OS)); assay: as above

Row | Molecule | binding [1] | binding [2]
1 | CBX1/HP1β (from UniProt P83916 1-185) | binds | binds
2 | CHD4 (from UniProt Q14839 1-1912) | binds | binds
3 | CoREST (from UniProt Q9UKL0 1-485) | binds | binds
4 | SUMO3 (from UniProt P55854 1-92) | binds | binds
5 | TRIM28 (endogenous, U2OS cells) (from UniProt Q13263 1-835) | binds | binds
6 | B1 | binds | binds
7 | B2 | binds | binds
